Reference: PMC6712036
Results are given in words; binding and its absence hold for the method and conditions named. Binding seen in cells or lysates may run through a third protein. Some entries that bind do so weakly or less than the wild type.

The chains behind the UniProt entries cited, without tags or fusion partners. Residues count along the entry.
UniProt P78504, residues 34-1218: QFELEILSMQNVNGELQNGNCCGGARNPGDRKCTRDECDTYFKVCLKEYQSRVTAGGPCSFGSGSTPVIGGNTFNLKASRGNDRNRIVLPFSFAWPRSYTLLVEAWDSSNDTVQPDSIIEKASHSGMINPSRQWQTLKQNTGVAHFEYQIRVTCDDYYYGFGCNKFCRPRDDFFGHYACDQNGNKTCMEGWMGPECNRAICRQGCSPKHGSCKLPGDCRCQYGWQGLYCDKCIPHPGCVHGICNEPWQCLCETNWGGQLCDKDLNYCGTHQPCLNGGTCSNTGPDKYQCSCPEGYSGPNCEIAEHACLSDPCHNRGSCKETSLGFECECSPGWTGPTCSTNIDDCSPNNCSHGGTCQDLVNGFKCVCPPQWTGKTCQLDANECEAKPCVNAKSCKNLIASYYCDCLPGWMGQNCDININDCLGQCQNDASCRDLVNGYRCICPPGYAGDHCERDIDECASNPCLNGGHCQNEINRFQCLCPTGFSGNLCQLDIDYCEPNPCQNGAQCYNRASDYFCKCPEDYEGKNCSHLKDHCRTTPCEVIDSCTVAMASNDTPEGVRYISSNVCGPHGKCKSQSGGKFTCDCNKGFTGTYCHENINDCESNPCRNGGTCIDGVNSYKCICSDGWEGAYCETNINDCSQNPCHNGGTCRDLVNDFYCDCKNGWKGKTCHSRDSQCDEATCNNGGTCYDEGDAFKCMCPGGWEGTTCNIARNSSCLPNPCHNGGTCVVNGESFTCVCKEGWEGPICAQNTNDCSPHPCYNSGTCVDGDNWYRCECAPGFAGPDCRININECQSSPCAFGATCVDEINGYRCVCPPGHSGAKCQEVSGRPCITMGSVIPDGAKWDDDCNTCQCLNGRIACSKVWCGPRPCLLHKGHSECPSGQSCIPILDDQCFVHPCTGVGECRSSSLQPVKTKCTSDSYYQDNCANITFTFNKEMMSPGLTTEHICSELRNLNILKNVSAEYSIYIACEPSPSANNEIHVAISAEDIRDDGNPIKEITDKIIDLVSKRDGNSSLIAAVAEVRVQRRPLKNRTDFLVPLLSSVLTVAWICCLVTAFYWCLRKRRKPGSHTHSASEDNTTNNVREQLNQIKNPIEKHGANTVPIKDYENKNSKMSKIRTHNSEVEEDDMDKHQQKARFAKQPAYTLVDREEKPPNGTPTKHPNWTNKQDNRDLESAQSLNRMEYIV
UniProt P08670: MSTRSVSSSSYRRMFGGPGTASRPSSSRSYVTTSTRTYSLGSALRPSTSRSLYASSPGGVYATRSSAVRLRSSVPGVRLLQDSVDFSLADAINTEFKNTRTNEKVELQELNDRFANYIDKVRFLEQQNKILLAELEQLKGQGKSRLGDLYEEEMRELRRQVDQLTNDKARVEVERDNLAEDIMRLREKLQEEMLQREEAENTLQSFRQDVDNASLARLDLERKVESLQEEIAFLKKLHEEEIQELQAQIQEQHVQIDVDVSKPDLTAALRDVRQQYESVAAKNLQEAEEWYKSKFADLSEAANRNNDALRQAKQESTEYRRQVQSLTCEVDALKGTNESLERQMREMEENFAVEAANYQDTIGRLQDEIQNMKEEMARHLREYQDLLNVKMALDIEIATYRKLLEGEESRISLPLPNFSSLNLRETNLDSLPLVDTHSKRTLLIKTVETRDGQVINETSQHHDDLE

Legend:
[1] = target: Jagged1 (human (endogenous in HUVEC)) (UniProt P78504); test: proximity ligation; in cells; details only in Supplementary Fig. 4A
[2] = target: Jagged1 (human (endogenous in HUVEC)) (UniProt P78504); test: co-IP; Jagged1 immunoprecipitated from ECs under static and shear stress conditions; precipitate immunoblotted (phosphospecific vimentin antibodies for Fig. 4F)

Question: Which binding [1] does the source give for vimentin (from UniProt P08670 1-466) here?
Answer: binds

Question: And the binding [2]?
Answer: binds

Question: For “vimentin phosphorylated at serine 38 (from UniProt P08670 1-466)”, which binding [2] is on record?
Answer: binds
